This note sets out measurements from article PMC7864056, “Functional and structural characterization of allosteric activation of phospholipase Cε by Rap1A” (The Journal of Biological Chemistry, 2020).

The chains behind the UniProt entries cited, without tags or fusion partners. Where a name states a change or a piece, a line headed by the entry shows the natural chain unless it says otherwise. Residues count along the entry.
UniProt Q99P84: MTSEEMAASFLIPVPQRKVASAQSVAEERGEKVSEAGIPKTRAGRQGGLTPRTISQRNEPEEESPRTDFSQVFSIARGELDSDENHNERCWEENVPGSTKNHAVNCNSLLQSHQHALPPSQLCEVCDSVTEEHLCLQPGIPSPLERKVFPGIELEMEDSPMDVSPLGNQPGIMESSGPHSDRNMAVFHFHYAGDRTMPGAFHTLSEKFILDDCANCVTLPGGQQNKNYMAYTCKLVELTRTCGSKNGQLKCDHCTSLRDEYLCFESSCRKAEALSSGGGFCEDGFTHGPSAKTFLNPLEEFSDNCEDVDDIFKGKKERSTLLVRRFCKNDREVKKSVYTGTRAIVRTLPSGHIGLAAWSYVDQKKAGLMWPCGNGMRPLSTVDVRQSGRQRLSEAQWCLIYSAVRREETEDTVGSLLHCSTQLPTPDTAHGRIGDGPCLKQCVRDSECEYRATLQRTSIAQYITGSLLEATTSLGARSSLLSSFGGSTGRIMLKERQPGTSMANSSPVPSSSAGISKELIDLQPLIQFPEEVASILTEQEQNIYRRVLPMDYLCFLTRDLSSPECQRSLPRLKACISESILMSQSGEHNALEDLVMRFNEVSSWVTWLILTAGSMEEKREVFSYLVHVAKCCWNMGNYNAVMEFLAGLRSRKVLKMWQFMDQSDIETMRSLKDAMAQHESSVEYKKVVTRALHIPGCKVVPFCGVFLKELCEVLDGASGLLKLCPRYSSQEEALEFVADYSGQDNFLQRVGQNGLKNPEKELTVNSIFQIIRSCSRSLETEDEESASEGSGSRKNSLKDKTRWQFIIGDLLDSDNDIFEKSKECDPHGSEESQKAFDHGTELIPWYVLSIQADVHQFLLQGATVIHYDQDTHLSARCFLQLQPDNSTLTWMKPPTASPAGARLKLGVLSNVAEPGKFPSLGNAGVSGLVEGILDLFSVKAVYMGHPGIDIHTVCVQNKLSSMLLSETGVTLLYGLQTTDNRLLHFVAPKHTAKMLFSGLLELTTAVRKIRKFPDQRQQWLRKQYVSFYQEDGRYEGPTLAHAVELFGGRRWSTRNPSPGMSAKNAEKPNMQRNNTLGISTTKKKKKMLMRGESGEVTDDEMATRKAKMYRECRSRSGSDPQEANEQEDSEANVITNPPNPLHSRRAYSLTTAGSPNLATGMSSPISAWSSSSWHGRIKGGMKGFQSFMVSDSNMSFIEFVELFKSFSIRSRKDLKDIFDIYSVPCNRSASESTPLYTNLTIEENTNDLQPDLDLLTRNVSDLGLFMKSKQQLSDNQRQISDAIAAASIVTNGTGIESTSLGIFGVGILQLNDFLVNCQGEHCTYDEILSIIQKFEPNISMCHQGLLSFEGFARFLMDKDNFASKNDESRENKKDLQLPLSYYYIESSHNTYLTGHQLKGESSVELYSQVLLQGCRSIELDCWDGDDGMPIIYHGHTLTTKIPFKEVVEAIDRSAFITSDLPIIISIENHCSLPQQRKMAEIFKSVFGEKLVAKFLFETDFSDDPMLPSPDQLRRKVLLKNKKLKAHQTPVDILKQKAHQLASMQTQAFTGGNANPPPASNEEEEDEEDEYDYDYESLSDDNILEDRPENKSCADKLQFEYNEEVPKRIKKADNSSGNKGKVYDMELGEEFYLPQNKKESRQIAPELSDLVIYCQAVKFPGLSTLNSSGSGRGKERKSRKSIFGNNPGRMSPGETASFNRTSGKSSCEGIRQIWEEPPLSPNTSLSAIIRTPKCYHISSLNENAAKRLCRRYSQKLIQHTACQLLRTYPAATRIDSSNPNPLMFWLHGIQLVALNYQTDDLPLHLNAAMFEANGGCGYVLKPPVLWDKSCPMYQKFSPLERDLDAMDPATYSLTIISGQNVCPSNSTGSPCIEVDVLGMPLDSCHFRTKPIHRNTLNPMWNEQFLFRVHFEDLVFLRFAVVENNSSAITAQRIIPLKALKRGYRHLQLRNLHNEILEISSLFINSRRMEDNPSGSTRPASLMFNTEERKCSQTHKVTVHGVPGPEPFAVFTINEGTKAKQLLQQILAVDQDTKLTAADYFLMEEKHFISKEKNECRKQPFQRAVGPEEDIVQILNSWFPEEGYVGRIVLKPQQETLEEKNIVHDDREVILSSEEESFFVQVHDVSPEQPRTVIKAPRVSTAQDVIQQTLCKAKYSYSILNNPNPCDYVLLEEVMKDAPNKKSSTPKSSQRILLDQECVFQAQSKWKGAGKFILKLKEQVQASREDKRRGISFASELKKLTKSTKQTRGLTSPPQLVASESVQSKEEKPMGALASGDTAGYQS
R. norvegicus PLCε PH-COOH variant (residues 837-2282): residues 837-2281 of Q99P84

Experiment [1] deals with R. norvegicus PLCε EF3-COOH variant (residues 1284-2282) (R. norvegicus) (UniProt Q99P84). Briefly: SEC-SAXS; EF3-COOH alone at 2-3 mg/ml in S200 buffer, Superdex 200 Increase 10/300 GL in line with SAXS (BioCAT, APS); both purified. On the technique in general: Size exclusion chromatography separates by hydrodynamic size, large species first.
Experiment [2] has the same target. Briefly: SEC-SAXS; isolated Rap1A G12V-PLCε variant complexes at 2-3 mg/ml in complex S200 buffer, Superdex 200 Increase 10/300 GL in line with SAXS (BioCAT, APS); both purified.
Experiment [3] concerns the target R. norvegicus PLCε PH-COOH variant (residues 837-2282) (R. norvegicus) (UniProt Q99P84). Described as above.
Experiment [4] addresses R. norvegicus PLCε EF3-COOH variant (residues 1284-2282) (R. norvegicus) (UniProt Q99P84). The experiment in a line: SEC; 1:3 or 1:5 molar ratio of PLCε variant to Rap1A G12V with 0.5 mM CaCl2, on ice 30 min, then Superdex S200 in 20 mM HEPES pH 8, 50 mM NaCl, 2 mM DTT, 0.1 mM EDTA, 0.1 mM EGTA, 1 mM MgCl2, 0.5 mM CaCl2, 40 uM GTP; fractions identified by SDS-PAGE; both purified.

Experiment [5] has as its target R. norvegicus PLCε PH-COOH variant (residues 837-2282) (R. norvegicus) (UniProt Q99P84). The experiment is described as above.

No constants are given. Whether binding was seen depends on the method and setting. Some entries that bind do so weakly or less than the wild type.

Turning to “R. norvegicus PLCε EF3-COOH variant (residues 1284-2282) (from UniProt Q99P84 1284-2281) (domain or fragment)”, in experiment [1], the binding result was “no binding (tested: 2–3 mg/ml)”.

B1: constitutively active and prenylated Homo sapiens Rap1A G12V, GTP-bound (natural protein, UniProt P62834 1-184, looked up)
chain: MREYKLVVLGSVGVGKSALTVQFVQGIFVEKYDPTIEDSYRKQVEVDCQQCMLEILDTAGTEQFTAMRDLYMKNGQGFALVYSITAQSTFNDLQDLREQILRVKDTEDVPMILVGNKCDLEDERVVGKEQGQNLARQWCNCAFLESSAKSKINVNEIFYDLVRQINRKTPVEKKKPKKKSCLLL
modifications: prenylated
B1: the binding result in experiment [2], in experiment [3], in experiment [4] and in experiment [5] was “binds” in each case.
